Measurements from paper PMC11477294, “In Vitro Profiling of the Antiviral Peptide TAT-I24” (International Journal of Molecular Sciences, 2024).

System: baculovirus expressing luciferase under the control of the CMV promoter
Assay type: cell-based
Details: SI = CC50/IC50 in HEK293 cells
Description: A baculovirus expressing luciferase under the control of the CMV promoter has been described previously. HEK293 cells were seeded at a density of 2 × 10^4 cells/100 µL per well in 96-well plates (Sarstedt, Germany). On the next day, cells were treated with a 1:3 dilution series of peptides and, without further pre-incubation, subsequently infected with baculovirus–luc at a multiplicity of infection (MOI) of 5. Cells were lysed 24 h post-infection using 20 µL Cell Culture Lysis Reagent (Promega, Mannheim, Germany). From the lysates, 10 µL was transferred to white 96-well plates, and luciferase was recorded using a luciferase assay system and a GloMax®-Multi Detection System (Promega, Mannheim, Germany).

Compound	SI (selectivity index)
CSCC[C@H](NC(=O)[C@H](Cc1ccccc1)NC(=O)[C@H](CCCNC(=N)N)NC(=O)[C@H](C)NC(=O)[C@H](Cc1ccc(O)cc1)NC(=O)[C@H](Cc1ccccc1)NC(=O)[C@H](C)NC(=O)[C@H](CC(C)C)NC(=O)[C@H](C)NC(=O)[C@H](CCC(N)=O)NC(=O)[C@@H]1CCCN1C(=O)[C@@H]1CCCN1C(=O)[C@H](CCCNC(=N)N)NC(=O)[C@H](CCCNC(=N)N)NC(=O)[C@H](CCCNC(=N)N)NC(=O)[C@H](CCC(N)=O)NC(=O)[C@H](CCCNC(=N)N)NC(=O)[C@H](CCCNC(=N)N)NC(=O)[C@H](CCCCN)NC(=O)[C@H](CCCCN)NC(=O)[C@H](CCCNC(=N)N)NC(=O)CN)C(=O)O [C14A, C20R, C22M] (H-GRKKRRQRRRPPQALAFYARFM-OH)	109
CC(C)C[C@H](NC(=O)[C@H](CS)NC(=O)[C@H](CCC(N)=O)NC(=O)[C@@H]1CCCN1C(=O)[C@@H]1CCCN1C(=O)[C@H](CCCNC(=N)N)NC(=O)[C@H](CCCNC(=N)N)NC(=O)[C@H](CCCNC(=N)N)NC(=O)[C@H](CCC(N)=O)NC(=O)[C@H](CCCNC(=N)N)NC(=O)[C@H](CCCNC(=N)N)NC(=O)[C@H](CCCCN)NC(=O)[C@H](CCCCN)NC(=O)[C@H](CCCNC(=N)N)NC(=O)CN)C(=O)N[C@@H](C)C(=O)N[C@@H](Cc1ccccc1)C(=O)N[C@@H](Cc1ccc(O)cc1)C(=O)N[C@@H](C)C(=O)N[C@@H](CS)C(=O)N[C@@H](Cc1ccccc1)C(=O)N[C@@H](CS)C(=O)O [TAT-I24] (H-GRKKRRQRRRPPQCLAFYACFC-OH)	2480

Where a SMILES comes first, the peptide text is derived from it.
